Taken from: PubChem BioAssay AID1259254 (NCATS, 2017)
The deposit covers about 59,000 reagents; shown is an unselected part. About 1,550 of all reagents (2.6%) were called active. 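G2 share is only a proxy for re-replication; each gene was hit by three separate siRNAs, and active genes were retested.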 Reagents against one gene are numbered here. Not all columns of the deposit are shown. Reagent sequences are not shown. The record does not give: the amount of reagent.

Assay: 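Genome-wide screen for genes that prevent DNA re-replication in cancer cells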 (primary screen)
System: human HCT116 colorectal cancer cells
Reagents: single siRNA against human genes
Timing: 3 days
Measured: 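Nuclei stained with Hoechst and imaged; cell-cycle phase assigned by DNA content; G2 share scaled per plate, non-targeting siRNA 0%, GMNN siRNA 100%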
Scale: G2 robust z-score and G2 cells, % of GMNN control: higher = more G2 cells, more excess DNA replication
Call rule: 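An siRNA counts as active if its G2 robust z-score lies at least 5 MADs above the screen median; here such calls match roughly 38% of GMNN control or more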

For EIF4G3 (eukaryotic translation initiation factor 4 gamma 3) #1, what was measured?
G2 robust z-score: -0.136; G2 cells, % of GMNN control: 2.01; call: inactive

How did the screen score EIF4G3 (eukaryotic translation initiation factor 4 gamma 3) #2?
G2 robust z-score: 0.881; G2 cells, % of GMNN control: 9.17; call: inactive

With EIF4G3 (eukaryotic translation initiation factor 4 gamma 3) #3, how do the results read?
G2 robust z-score: -0.437; G2 cells, % of GMNN control: -0.105; call: inactive

With MANF (mesencephalic astrocyte derived neurotrophic factor) #1, how do the results read?
G2 robust z-score: 1.92; G2 cells, % of GMNN control: 16.4; call: inactive

What is on record for MANF (mesencephalic astrocyte derived neurotrophic factor) #2?
G2 robust z-score: -0.878; G2 cells, % of GMNN control: -3.21; call: inactive

What is on record for MANF (mesencephalic astrocyte derived neurotrophic factor) #3?
G2 robust z-score: -0.979; G2 cells, % of GMNN control: -3.92; call: inactive

With FBXO33 (F-box protein 33) #1, how do the results read?
G2 robust z-score: -0.23; G2 cells, % of GMNN control: 1.35; call: inactive

What did the screen give for FBXO33 (F-box protein 33) #2?
G2 robust z-score: 0.386; G2 cells, % of GMNN control: 5.68; call: inactive

What did the screen give for FBXO33 (F-box protein 33) #3?
G2 robust z-score: -0.413; G2 cells, % of GMNN control: 0.0636; call: inactive

With SLC25A1 #1, how do the results read?
G2 robust z-score: -1.59; G2 cells, % of GMNN control: -8.18; call: inactive

How did the screen score SLC25A1 #2?
G2 robust z-score: -1.35; G2 cells, % of GMNN control: -6.52; call: inactive

For SLC25A1 #3, how do the results read?
G2 robust z-score: -0.498; G2 cells, % of GMNN control: -0.538; call: inactive
